The supplement of paper PMC10849652
The other results are listed elsewhere or left out.

Protein sequences, listed by entry. Tags and fused reporters are not part of them. Lines headed by an entry give the natural chain unless they say otherwise; changes in a name come on top.
UniProt P46379: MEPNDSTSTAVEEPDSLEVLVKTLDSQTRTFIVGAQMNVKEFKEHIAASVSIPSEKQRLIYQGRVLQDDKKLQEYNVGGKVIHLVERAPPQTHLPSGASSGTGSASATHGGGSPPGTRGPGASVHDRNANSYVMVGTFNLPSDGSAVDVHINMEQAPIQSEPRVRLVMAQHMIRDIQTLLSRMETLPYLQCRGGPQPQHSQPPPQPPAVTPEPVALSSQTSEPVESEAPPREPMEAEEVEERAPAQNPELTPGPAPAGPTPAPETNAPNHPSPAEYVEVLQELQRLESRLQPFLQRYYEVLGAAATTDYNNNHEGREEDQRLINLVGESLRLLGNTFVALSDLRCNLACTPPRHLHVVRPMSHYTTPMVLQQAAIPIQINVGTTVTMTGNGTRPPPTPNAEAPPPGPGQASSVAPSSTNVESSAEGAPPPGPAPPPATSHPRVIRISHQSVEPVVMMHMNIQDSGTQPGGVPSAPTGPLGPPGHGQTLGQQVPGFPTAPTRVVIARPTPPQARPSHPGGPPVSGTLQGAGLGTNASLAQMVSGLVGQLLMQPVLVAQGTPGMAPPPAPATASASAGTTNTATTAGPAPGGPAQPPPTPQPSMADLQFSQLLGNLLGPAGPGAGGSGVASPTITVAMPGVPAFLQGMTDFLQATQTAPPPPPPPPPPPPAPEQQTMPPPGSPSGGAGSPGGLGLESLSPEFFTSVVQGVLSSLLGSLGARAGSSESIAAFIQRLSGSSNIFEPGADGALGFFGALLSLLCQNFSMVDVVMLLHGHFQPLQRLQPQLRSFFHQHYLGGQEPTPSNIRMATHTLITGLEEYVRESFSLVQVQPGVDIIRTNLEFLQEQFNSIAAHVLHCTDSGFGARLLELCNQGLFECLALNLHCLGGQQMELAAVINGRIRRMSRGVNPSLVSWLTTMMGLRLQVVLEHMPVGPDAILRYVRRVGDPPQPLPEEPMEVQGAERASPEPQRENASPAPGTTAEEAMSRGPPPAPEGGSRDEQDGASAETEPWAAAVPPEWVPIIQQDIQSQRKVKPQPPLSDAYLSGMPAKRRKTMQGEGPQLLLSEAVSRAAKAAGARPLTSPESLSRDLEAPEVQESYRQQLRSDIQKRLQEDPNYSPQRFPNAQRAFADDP
UniProt O95817, whole entry, looked up: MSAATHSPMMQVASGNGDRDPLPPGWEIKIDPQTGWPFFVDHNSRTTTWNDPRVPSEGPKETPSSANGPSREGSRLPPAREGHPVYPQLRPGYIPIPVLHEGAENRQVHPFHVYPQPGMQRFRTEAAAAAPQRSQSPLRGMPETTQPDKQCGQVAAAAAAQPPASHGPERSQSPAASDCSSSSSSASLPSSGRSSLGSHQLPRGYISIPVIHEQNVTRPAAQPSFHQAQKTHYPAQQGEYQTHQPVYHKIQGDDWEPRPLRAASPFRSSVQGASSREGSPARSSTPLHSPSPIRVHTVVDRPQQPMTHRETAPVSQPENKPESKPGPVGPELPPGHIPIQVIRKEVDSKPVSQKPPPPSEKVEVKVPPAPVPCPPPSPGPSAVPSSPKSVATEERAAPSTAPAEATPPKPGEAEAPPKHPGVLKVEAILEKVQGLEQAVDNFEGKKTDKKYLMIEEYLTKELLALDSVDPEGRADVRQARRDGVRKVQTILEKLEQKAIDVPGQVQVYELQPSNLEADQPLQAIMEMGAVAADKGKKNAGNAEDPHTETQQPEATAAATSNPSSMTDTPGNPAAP
UniProt Q8TD16, whole entry, looked up: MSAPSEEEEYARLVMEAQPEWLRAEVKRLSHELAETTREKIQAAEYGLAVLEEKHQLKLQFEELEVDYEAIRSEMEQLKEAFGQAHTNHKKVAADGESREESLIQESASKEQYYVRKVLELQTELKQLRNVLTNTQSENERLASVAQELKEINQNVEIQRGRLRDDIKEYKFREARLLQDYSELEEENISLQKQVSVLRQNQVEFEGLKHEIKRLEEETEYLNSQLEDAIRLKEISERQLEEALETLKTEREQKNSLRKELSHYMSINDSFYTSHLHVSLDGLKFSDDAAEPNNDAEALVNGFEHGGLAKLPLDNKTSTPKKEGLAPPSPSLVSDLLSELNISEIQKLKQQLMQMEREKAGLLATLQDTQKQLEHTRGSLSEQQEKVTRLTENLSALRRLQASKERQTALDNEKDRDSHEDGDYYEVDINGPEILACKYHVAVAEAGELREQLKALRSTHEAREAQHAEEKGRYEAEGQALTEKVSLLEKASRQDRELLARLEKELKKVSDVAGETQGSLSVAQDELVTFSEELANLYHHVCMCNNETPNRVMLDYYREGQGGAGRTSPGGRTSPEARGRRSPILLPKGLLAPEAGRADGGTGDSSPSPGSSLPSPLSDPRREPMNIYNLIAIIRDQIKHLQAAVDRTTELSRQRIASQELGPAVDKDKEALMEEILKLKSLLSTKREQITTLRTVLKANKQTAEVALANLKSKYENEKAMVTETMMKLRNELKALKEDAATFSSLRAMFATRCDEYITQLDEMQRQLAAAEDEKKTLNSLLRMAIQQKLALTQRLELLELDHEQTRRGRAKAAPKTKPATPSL
UniProt Q07817, whole entry, looked up: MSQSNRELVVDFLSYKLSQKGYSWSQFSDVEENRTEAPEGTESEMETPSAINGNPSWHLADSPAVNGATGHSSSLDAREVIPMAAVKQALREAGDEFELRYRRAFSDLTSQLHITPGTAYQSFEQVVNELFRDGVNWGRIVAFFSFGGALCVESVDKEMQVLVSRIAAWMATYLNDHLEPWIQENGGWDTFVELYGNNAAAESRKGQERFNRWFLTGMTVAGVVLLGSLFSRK
UniProt Q14137: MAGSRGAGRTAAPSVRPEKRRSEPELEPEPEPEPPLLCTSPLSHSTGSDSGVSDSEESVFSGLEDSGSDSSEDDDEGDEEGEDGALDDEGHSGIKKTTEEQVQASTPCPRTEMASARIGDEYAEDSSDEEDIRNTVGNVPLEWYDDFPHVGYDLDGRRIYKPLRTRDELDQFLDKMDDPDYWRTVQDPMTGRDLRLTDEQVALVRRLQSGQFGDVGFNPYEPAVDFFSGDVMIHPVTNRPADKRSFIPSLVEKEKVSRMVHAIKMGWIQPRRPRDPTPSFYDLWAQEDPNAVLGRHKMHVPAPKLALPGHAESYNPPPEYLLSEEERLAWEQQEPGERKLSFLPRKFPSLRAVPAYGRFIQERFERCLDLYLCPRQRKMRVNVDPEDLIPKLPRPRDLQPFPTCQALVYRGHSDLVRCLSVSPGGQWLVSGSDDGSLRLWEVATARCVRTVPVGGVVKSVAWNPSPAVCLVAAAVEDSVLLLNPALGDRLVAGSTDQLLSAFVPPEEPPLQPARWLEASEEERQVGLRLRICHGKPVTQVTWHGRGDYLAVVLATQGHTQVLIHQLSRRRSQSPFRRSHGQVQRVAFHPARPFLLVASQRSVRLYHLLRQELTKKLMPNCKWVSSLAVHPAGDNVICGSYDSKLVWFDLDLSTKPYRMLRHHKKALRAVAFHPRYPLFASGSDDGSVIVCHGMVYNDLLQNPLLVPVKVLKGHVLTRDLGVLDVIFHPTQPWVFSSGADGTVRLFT
UniProt Q92843: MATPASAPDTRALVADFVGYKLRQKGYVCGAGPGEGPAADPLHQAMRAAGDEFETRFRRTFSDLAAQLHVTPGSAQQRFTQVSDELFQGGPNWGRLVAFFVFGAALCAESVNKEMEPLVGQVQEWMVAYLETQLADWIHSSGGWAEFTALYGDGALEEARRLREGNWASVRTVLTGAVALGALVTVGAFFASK
UniProt O15155: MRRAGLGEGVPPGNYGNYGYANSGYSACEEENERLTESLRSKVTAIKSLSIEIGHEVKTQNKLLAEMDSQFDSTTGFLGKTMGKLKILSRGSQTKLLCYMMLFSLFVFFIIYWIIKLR
UniProt P25311: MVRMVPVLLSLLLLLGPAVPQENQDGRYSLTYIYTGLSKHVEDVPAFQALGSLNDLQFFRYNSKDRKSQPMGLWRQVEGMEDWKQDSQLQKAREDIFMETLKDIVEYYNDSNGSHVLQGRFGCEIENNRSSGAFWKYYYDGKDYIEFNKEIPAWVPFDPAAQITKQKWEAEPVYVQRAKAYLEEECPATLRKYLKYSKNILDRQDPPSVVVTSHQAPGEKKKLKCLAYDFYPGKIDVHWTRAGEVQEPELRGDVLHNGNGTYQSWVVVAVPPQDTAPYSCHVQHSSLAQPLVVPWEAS
UniProt P51572: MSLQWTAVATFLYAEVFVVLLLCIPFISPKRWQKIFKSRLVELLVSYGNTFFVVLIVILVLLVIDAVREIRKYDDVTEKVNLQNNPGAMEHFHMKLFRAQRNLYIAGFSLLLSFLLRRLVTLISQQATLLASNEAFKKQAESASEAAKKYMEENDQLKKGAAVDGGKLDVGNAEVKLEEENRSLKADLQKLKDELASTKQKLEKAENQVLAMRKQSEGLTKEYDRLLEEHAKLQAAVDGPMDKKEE
UniProt P53004: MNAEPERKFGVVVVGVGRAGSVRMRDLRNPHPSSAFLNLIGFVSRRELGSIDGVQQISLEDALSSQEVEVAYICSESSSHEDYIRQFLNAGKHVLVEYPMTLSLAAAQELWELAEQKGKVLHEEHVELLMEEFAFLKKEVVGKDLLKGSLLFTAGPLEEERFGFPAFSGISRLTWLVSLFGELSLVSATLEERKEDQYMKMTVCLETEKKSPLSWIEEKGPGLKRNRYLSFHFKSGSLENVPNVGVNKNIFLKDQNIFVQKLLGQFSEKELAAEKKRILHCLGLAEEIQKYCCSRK
UniProt Q9Y276: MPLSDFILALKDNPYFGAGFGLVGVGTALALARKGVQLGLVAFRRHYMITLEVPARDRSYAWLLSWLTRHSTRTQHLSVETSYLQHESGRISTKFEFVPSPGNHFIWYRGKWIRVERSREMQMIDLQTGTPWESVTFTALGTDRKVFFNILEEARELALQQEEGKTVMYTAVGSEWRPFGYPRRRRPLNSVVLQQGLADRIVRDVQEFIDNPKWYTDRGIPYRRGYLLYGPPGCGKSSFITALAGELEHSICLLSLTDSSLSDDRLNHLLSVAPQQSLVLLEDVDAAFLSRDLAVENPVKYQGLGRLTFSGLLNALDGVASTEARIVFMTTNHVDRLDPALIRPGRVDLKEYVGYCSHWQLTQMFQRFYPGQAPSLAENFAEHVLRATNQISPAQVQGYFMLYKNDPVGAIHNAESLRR
UniProt Q6UW56: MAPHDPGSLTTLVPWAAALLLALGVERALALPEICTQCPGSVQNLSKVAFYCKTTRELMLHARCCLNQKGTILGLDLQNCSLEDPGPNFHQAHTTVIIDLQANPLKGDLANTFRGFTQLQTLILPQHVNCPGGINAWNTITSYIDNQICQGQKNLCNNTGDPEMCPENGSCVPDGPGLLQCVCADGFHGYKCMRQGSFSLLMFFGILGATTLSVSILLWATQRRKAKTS
UniProt O14867: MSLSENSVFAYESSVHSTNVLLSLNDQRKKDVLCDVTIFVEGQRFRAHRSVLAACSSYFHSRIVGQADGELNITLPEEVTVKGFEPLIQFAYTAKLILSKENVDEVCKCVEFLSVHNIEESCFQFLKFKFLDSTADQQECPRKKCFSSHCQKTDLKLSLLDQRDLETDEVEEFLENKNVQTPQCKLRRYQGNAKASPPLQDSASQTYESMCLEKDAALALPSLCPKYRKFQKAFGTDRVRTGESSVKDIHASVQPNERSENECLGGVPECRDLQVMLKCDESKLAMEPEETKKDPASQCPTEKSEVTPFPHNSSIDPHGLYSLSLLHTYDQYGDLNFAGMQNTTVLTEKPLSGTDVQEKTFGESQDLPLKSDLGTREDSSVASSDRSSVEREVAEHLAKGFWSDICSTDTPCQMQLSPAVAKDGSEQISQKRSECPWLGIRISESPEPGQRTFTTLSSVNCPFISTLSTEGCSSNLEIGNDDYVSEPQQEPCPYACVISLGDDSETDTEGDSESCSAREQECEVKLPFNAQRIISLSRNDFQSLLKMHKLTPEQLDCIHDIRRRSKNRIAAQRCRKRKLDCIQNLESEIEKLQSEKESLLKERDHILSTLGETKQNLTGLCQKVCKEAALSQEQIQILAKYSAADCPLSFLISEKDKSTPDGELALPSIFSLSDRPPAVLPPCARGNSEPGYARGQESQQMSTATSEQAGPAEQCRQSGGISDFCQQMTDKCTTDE
UniProt Q9NXR7, whole entry, looked up: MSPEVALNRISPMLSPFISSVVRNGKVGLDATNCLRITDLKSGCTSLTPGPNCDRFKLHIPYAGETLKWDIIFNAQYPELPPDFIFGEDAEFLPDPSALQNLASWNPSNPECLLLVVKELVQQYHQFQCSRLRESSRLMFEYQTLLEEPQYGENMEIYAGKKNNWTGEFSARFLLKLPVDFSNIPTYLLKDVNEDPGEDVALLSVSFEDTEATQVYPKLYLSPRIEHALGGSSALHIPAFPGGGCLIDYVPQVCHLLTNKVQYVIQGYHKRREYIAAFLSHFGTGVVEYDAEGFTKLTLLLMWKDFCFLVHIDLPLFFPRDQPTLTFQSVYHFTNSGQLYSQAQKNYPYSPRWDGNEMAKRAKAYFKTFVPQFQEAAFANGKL

How the values were obtained:
Assay in all cases: log2 fold change, soluble protein after heating vs DMSO (PISA); higher = thermal stabilisation; K562 cells, 10 uM, 30 min; active = over 0.2 and 3.5 SD of the protein, either way, in both replicates (recomputed)
[1] = compound: COC1=CC=C(C=C1)CN2C=CC3=C2C=C(C=C3)C(=O)NO
Method in brief: (§1)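 K562 cells at 2×10^6 cells/mL were exposed to 10 μM compound for 30 min, then aliquots were heated for 3 min across 48°C-58°C, pooled, and extracted in PBS containing 0.5% NP-40 at 4°C. The supernatant after 21,000xg for 90 min was taken as soluble protein and measured by TMTpro 16plex LC-MS/MS with channel sums equalised. Thermal stability is reported relative to control samples, with values from duplicates. Fold changes are given on a log2 scale.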

filanesib = compound: CON(C)C(=O)N1N=C(c2cc(F)ccc2F)S[C@@]1(CCCN)c1ccccc1 [filanesib]
Method in brief: as §1

zotarolimus = compound: CO[C@H]1C[C@@H]2CC[C@@H](C)[C@@](O)(O2)C(=O)C(=O)N2CCCC[C@H]2C(=O)O[C@H]([C@H](C)C[C@@H]2CC[C@H](n3cnnn3)[C@H](OC)C2)CC(=O)[C@H](C)/C=C(\C)[C@@H](O)[C@@H](OC)C(=O)[C@H](C)C[C@H](C)/C=C/C=C/C=C/1C [zotarolimus]
Method in brief: as §1

idasanutlin = compound: COc1cc(C(=O)O)ccc1NC(=O)[C@@H]1N[C@@H](CC(C)(C)C)[C@](C#N)(c2ccc(Cl)cc2F)[C@H]1c1cccc(Cl)c1F [idasanutlin]
Method in brief: as §1

alisertib = compound: COc1cc(Nc2ncc3c(n2)-c2ccc(Cl)cc2C(c2c(F)cccc2OC)=NC3)ccc1C(=O)O [alisertib]
Method in brief: as §1

[2] = compound: COc1cc2nc(-c3cc(F)ccc3O)nc(N[C@@H]3CNC[C@H]3C(C)(C)O)c2cc1OC
Method in brief: as §1

gefitinib = compound: COc1cc2ncnc(Nc3ccc(F)c(Cl)c3)c2cc1OCCCN1CCOCC1 [gefitinib]
Method in brief: as §1

[3] = compound: COc1cccc2cc(-c3nc([C@H]4CC[C@H](C(=O)O)CC4)n4ncnc(N)c34)[nH]c12
Method in brief: as §1

lapatinib = compound: CS(=O)(=O)CCNCc1ccc(-c2ccc3ncnc(Nc4ccc(OCc5cccc(F)c5)c(Cl)c4)c3c2)o1 [lapatinib]
Method in brief: as §1

pictilisib = compound: CS(=O)(=O)N1CCN(Cc2cc3nc(-c4cccc5[nH]ncc45)nc(N4CCOCC4)c3s2)CC1 [pictilisib]
Method in brief: as §1

Measured: log2 fold change

BAG6 isoform 3 (UniProt P46379)
inactive: [1] 0.026 | filanesib -0.024 | zotarolimus 0.045 | idasanutlin 0.077 | alisertib -0.115 | [2] -0.013 | gefitinib -0.011 | [3] -0.024 | lapatinib 0.011 | pictilisib -0.004

BAG3 (UniProt O95817)
inactive: [1] -0.015 | filanesib 0.036 | zotarolimus -0.053 | idasanutlin 0.048 | alisertib -0.023 | [2] -0.012 | gefitinib -0.033 | [3] 0.032 | lapatinib -0.042 | pictilisib 0.146

BICD2 isoform 2 (UniProt Q8TD16)
inactive: [1] 0.177 | filanesib -0.031 | zotarolimus 0.031 | idasanutlin -0.003 | alisertib -0.027 | [2] 0.019 | gefitinib 0.033 | [3] -0.036 | lapatinib -0.01 | pictilisib -0.006

BCL2L1 (UniProt Q07817)
inactive: [1] -0.046 | filanesib -0.06 | zotarolimus 0.024 | idasanutlin 0.015 | alisertib -0.077 | [2] -0.127 | gefitinib -0.012 | [3] 0.039 | lapatinib 0.058 | pictilisib -0.032

BRI3BP (UniProt Q8WY22)
inactive: [1] 0.004 | filanesib -0.026 | zotarolimus -0.035 | idasanutlin 0.062 | alisertib -0.193 | [2] 0.015 | gefitinib 0.019 | [3] 0.138 | lapatinib 0.039

BOP1 (UniProt Q14137)
inactive: [1] -0.059 | filanesib 0.161 | zotarolimus 0.054 | idasanutlin 0.077 | alisertib -0.131 | [2] -0.085 | gefitinib 0.017 | [3] -0.012 | lapatinib -0.034 | pictilisib 0

BCL2L2 isoform 2 (UniProt Q92843)
inactive: [1] 0.018 | filanesib 0.115 | zotarolimus -0.024 | idasanutlin 0.164 | alisertib -0.1 | [2] 0.073 | gefitinib -0.145 | [3] -0.022 | lapatinib 0.002 | pictilisib 0.029

BET1 (UniProt O15155)
inactive: [1] -0.06 | filanesib -0.08 | zotarolimus 0.036 | idasanutlin -0.017 | alisertib -0.055 | [2] -0.062 | gefitinib -0.024 | [3] 0.025 | lapatinib -0.029 | pictilisib 0.024

AZGP1 (UniProt P25311)
inactive: [1] 0.596 | filanesib 0.421 | zotarolimus -0.304 | idasanutlin 0.046 | alisertib 0.589 | [2] 0.14 | gefitinib 0.108 | [3] -0.117 | lapatinib -0.213 | pictilisib 0.437

BCAP31 isoform 2 (UniProt P51572)
inactive: [1] -0.056 | filanesib -0.046 | zotarolimus -0.005 | idasanutlin -0.012 | alisertib -0.032 | [2] 0.021 | gefitinib 0.03 | [3] 0.015 | lapatinib -0.073 | pictilisib -0.049

2 consecutive records out of the list so far, for reference:
AZGP1 (UniProt P25311)
inactive: [1] 0.596 | filanesib 0.421 | zotarolimus -0.304 | idasanutlin 0.046 | alisertib 0.589 | [2] 0.14 | gefitinib 0.108 | [3] -0.117 | lapatinib -0.213 | pictilisib 0.437

BCAP31 isoform 2 (UniProt P51572)
inactive: [1] -0.056 | filanesib -0.046 | zotarolimus -0.005 | idasanutlin -0.012 | alisertib -0.032 | [2] 0.021 | gefitinib 0.03 | [3] 0.015 | lapatinib -0.073 | pictilisib -0.049

Continuation.

BLVRA (UniProt P53004)
inactive: [1] -0.002 | filanesib -0.097 | zotarolimus 0.017 | idasanutlin -0.127 | alisertib -0.021 | [2] 0.025 | gefitinib -0.009 | [3] 0.085 | lapatinib -0.013 | pictilisib 0.027

BCS1L (UniProt Q9Y276)
inactive: [1] -0.032 | filanesib -0.014 | zotarolimus -0.049 | idasanutlin -0.072 | alisertib -0.041 | [2] 0.041 | gefitinib 0.028 | [3] 0.029 | lapatinib -0.021 | pictilisib 0.053

ATRAID isoform 3 (UniProt Q6UW56)
inactive: [1] -0.034 | filanesib -0.074 | zotarolimus -0.029 | idasanutlin -0.052 | alisertib -0.072 | [2] -0.015 | gefitinib -0.033 | [3] 0.167 | lapatinib -0.044 | pictilisib 0.056

BACH1 (UniProt O14867)
inactive: [1] -0.003 | filanesib 0.043 | zotarolimus 0.006 | idasanutlin 0.031 | alisertib -0.064 | [2] -0.01 | gefitinib -0.043 | [3] 0.036 | lapatinib 0.018 | pictilisib 0.042

BABAM2 (UniProt Q9NXR7)
inactive: [1] -0.024 | filanesib -0.007 | zotarolimus -0.016 | idasanutlin 0.038 | alisertib -0.007 | [2] 0.01 | gefitinib 0.028 | [3] 0.076 | lapatinib -0.028 | pictilisib 0.012
